Test results: the supplement of paper PMC10849652
The list shows a part of the results.

Protein sequences, listed by entry. Tags and fused reporters are not part of them. Lines headed by an entry give the natural chain unless they say otherwise; changes in a name come on top.
UniProt P42679: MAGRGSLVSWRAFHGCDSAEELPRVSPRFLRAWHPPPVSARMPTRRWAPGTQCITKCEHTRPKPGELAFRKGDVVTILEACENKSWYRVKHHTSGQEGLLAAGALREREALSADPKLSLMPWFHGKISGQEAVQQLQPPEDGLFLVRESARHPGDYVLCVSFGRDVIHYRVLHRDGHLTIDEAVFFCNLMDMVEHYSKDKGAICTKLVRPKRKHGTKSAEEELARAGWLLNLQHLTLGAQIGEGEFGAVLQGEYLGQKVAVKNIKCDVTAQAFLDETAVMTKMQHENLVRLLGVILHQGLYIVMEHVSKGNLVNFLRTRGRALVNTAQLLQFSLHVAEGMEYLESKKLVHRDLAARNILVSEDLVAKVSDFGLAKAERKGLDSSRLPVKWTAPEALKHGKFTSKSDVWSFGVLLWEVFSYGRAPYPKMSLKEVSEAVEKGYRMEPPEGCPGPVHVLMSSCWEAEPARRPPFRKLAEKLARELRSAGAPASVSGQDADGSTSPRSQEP
MCTS2P, A0A3B3IRV3, UniProt A0A3B3IRV3, whole entry, looked up: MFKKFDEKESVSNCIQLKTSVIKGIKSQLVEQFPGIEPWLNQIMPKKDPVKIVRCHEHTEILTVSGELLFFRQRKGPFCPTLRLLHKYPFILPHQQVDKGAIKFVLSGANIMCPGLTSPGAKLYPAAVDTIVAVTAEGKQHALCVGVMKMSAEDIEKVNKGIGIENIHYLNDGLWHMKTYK
UniProt Q14680: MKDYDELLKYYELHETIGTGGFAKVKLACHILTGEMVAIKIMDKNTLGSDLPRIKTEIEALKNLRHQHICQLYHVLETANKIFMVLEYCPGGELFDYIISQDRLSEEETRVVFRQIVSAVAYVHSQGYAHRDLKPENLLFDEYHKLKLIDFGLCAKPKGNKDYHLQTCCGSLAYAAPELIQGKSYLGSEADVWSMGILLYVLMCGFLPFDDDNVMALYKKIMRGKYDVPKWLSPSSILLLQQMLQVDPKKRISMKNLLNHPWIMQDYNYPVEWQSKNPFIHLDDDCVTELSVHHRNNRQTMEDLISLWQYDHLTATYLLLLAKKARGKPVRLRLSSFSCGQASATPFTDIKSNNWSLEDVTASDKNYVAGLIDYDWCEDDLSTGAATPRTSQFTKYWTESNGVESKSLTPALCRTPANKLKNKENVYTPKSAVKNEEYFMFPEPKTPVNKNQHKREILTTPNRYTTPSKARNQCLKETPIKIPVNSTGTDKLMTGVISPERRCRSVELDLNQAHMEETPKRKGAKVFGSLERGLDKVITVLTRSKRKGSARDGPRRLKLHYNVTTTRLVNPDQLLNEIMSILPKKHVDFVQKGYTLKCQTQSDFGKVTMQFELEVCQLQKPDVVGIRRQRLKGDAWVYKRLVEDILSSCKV
UniProt Q00987, whole entry, looked up: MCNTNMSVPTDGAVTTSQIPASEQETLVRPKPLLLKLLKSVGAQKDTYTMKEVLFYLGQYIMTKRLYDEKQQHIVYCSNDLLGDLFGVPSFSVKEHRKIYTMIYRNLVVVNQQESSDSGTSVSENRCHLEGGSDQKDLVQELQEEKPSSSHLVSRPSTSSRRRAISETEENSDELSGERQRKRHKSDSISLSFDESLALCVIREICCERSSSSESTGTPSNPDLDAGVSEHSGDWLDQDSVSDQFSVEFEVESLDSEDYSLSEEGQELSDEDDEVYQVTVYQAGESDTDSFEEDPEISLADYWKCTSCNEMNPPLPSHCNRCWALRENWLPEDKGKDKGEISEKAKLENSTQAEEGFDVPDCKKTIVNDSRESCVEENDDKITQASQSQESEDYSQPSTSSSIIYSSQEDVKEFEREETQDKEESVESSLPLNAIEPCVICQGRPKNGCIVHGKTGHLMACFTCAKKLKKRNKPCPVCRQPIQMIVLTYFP
UniProt Q9NWA0: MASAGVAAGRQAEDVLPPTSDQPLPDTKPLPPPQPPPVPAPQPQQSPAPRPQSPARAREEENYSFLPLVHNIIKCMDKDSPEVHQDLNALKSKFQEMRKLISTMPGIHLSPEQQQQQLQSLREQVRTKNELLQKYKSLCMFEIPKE
UniProt Q5VZF2: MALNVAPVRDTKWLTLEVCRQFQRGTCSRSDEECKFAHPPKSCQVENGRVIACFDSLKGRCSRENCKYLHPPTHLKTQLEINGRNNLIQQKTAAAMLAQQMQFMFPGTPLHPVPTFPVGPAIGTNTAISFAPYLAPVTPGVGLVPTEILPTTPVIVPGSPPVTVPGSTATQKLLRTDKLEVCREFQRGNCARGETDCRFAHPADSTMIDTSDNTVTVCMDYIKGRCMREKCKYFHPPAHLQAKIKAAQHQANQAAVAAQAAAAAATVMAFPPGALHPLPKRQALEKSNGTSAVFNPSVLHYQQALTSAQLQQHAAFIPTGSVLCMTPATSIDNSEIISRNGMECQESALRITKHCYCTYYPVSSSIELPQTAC
UniProt Q05BQ5, whole entry, looked up: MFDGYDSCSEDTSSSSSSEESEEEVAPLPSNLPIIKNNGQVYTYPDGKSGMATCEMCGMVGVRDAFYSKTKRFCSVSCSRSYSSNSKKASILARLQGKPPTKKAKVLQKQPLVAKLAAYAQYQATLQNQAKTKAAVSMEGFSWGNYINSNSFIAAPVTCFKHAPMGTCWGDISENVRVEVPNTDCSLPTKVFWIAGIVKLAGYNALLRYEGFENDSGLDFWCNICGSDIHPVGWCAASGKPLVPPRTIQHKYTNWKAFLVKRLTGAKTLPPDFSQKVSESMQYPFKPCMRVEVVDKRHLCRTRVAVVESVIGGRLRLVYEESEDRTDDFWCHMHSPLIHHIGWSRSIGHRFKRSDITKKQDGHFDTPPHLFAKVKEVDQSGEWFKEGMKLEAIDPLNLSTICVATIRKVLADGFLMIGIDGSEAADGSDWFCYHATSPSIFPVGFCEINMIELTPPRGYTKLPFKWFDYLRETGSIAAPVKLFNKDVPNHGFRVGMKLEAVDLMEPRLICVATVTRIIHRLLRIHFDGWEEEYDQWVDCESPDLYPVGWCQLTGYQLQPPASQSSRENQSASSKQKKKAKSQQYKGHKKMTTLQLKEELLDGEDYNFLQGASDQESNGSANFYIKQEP
UniProt A1L020: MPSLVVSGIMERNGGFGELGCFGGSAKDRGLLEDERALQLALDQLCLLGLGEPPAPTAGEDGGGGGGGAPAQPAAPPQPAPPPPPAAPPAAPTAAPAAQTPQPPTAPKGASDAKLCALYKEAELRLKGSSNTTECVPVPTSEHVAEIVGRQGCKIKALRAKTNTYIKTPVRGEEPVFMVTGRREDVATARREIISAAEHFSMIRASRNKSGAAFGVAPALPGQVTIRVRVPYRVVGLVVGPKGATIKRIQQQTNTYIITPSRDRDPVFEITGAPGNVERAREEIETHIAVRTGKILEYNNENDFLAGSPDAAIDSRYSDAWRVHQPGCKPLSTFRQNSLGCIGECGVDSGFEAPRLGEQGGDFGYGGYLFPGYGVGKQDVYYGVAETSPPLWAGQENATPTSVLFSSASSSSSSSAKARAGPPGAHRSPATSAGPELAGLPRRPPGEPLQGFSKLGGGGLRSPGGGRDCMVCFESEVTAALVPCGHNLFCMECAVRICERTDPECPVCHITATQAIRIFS
UniProt P21741: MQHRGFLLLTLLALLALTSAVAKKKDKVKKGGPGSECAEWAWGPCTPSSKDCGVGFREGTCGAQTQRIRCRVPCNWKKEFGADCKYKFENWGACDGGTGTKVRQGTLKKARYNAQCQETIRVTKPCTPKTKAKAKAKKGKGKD
UniProt P55082: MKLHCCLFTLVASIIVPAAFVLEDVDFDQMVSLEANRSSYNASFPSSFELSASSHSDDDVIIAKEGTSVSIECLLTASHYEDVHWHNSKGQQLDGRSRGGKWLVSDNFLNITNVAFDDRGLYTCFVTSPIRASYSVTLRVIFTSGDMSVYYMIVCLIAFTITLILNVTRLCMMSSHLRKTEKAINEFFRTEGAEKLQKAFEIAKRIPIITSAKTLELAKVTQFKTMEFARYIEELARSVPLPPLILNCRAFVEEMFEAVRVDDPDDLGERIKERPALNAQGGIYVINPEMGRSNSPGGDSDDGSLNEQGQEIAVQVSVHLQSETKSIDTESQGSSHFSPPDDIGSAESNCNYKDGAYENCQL
UniProt A6NJ78: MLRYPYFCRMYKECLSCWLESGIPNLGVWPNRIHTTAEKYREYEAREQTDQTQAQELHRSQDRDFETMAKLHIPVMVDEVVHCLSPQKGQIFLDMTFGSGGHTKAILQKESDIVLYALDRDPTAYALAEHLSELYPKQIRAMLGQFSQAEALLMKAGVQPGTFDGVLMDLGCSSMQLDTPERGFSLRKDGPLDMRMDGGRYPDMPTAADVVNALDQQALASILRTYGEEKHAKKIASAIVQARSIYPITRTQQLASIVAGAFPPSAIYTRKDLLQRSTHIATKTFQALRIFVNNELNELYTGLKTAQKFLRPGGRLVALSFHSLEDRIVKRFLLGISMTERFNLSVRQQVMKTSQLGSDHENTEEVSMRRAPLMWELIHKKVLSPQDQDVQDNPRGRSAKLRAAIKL
UniProt Q6ZSS7: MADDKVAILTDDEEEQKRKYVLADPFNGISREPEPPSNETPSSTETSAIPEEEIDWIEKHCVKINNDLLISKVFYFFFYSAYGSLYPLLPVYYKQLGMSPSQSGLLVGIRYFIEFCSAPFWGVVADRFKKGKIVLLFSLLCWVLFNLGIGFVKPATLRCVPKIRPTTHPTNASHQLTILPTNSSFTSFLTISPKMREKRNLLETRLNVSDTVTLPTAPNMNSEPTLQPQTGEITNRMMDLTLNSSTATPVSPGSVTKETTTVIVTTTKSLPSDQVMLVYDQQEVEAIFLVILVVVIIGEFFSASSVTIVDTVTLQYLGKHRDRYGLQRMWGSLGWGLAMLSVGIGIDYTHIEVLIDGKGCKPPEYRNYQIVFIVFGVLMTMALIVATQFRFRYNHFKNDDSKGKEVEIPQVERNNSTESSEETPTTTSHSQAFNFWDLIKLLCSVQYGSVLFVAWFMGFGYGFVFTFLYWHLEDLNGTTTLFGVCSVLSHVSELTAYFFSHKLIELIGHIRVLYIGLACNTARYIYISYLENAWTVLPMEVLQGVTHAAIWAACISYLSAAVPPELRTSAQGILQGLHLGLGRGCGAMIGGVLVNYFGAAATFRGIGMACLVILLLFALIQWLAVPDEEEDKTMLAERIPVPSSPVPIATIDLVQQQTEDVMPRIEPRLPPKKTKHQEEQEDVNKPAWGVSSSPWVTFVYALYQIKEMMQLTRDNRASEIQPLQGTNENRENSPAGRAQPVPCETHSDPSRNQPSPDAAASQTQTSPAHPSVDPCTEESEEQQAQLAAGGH
UniProt Q9P086: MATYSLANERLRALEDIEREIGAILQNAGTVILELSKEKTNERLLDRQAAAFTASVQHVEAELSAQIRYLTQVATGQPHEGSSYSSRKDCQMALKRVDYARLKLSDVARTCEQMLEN
UniProt Q6UX53: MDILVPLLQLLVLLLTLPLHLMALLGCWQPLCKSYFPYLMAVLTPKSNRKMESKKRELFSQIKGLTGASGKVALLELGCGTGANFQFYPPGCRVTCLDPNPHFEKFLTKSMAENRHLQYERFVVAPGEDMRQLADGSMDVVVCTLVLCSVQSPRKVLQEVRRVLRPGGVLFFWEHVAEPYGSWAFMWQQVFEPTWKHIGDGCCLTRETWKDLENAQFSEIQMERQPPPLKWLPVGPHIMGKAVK
UniProt P08582: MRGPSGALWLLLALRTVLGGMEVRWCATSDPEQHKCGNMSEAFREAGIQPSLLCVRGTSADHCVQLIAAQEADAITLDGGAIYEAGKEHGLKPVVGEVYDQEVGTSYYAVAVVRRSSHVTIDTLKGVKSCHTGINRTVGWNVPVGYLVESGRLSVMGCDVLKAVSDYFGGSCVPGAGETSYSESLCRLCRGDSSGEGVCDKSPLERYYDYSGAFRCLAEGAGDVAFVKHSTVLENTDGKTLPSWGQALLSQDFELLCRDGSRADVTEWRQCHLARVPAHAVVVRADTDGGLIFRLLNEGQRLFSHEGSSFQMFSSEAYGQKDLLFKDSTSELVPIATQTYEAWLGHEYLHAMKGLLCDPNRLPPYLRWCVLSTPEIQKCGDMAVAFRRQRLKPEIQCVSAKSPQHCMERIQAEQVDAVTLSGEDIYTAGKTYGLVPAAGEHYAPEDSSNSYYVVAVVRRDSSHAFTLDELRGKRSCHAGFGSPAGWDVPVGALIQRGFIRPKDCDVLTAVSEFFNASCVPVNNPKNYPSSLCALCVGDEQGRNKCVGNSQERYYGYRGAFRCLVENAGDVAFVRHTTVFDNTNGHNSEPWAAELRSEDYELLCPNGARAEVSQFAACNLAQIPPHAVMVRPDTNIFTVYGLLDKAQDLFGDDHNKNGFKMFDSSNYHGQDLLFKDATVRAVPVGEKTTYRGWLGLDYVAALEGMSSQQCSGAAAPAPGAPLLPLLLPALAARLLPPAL
UniProt A4D2B0: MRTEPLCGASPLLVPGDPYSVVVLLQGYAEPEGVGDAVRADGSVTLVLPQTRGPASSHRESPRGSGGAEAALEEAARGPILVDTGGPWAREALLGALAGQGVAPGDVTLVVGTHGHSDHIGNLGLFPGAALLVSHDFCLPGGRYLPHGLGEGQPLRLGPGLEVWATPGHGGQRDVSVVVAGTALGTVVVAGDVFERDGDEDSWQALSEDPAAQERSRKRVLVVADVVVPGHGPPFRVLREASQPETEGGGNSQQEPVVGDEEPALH

Compound: CC(C)(O)CC(=O)NCCn1ccc2ncnc(Nc3ccc(Oc4cccc(C(F)(F)F)c4)c(Cl)c3)c21
Experiment: log2 fold change, soluble protein after heating vs DMSO (PISA); higher = thermal stabilisation; K562 lysate, 10 uM; active = over 0.2 and 3.5 SD of the protein, either way, in both replicates (recomputed)
In short: (§1)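 To prepare the extract, K562 pellets were dounce-homogenised in PBS pH 7.4 with 1 mM MgCl2, giving crude material at 1 mg/mL protein. This was treated with 10 μM compound for 30 min, then heated in aliquots for 3 min over 48°C-58°C before pooling and addition of NP-40 to 0.5% at 4°C. Centrifugation at 21,000xg for 90 min left soluble protein in the supernatant, which TMTpro 16plex LC-MS/MS quantified with equalised channel sums. Results are log-two fold changes in thermal stability compared with solvent controls, from duplicates.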

log2 fold change, inactive:
MATK isoform 2 (UniProt P42679) 0.271
MCTS2P, A0A3B3IRV3 -0.085
MELK (UniProt Q14680) 0.011
MEGF9 (UniProt Q9H1U4) -0.031
MDM2 isoform 11 (UniProt Q00987) -0.08
MED9 (UniProt Q9NWA0) 0.059
MBNL2 (UniProt Q5VZF2) -0.002
MBTD1 (UniProt Q05BQ5) -0.052
MED29 (UniProt Q9NX70) 0.017
MEX3A (UniProt A1L020) -0.123
MDK (UniProt P21741) -0.039
MFSD14B (UniProt Q5SR56) 0.032
MDM1 (UniProt Q8TC05) -0.054
MBTPS1 (UniProt Q14703) -0.045
MED28 (UniProt Q9H204) -0.025
MEN1 (UniProt O00255) -0.181
MFAP3 (UniProt P55082) 0.102
METAP2 isoform 2 (UniProt P50579) -0.124
METTL15 (UniProt A6NJ78) 0.015
MFSD6 (UniProt Q6ZSS7) -0.05

Compound: CC(C)C1=C2N=C(C=C(N2N=C1)NCC3=CC=CC=C3)NCCCCCCN
Experiment: as above
In short: as §1

log2 fold change, inactive:
MFSD12 isoform 3 (UniProt Q6NUT3) 0.053
MED11 (UniProt Q9P086) -0.104
MCTS2P, A0A3B3IRV3 -0.036
MELK (UniProt Q14680) 0.082
MEGF9 (UniProt Q9H1U4) -0.08
MDM2 isoform 11 (UniProt Q00987) -0.006
MBNL2 (UniProt Q5VZF2) -0.174
MED29 (UniProt Q9NX70) -0.073
MDK (UniProt P21741) -0.076
MFSD14B (UniProt Q5SR56) -0.099
MDM1 (UniProt Q8TC05) -0.029
METTL7B (UniProt Q6UX53) 0.212
MBTPS1 (UniProt Q14703) -0.029
MED28 (UniProt Q9H204) -0.002
MEN1 (UniProt O00255) -0.057
MFAP3 (UniProt P55082) 0.008
MELTF (UniProt P08582) -0.186
MEX3C (UniProt Q5U5Q3) 0.039
MFSD6 (UniProt Q6ZSS7) -0.015
MBLAC1 (UniProt A4D2B0) 0.045
